Assay results from patent US20240238299A1, “USE OF PYRROLOPYRIMIDINE COMPOUND” (GUANGZHOU JOYO PHARMATECH CO., LTD, priority 2021, published 2024).
At least one compound was matched to its structure with a doubt left.

System: STAT3 phosphorylation (p-STAT3/STAT3) in spinal cord
Assay: EAE mouse model, STAT3 phosphorylation in spinal cord (Western blot)
Assay type: in vivo, C57BL/6 mice
Conditions: 0.5 mg/kg QD oral, day 28, 0.25 h after administration

CCCCCCCCc1ccc(CCC(N)(CO)CO)cc1 [Fingolimod, reference compound]
STAT3 phosphorylation in spinal cord: significantly inhibited STAT3 phosphorylation to normal animal levels
